From publication PMC8396604

Protein sequences, listed by entry. Tags and fused reporters are not part of them. Lines headed by an entry give the natural chain unless they say otherwise; changes in a name come on top.
UniProt P80206: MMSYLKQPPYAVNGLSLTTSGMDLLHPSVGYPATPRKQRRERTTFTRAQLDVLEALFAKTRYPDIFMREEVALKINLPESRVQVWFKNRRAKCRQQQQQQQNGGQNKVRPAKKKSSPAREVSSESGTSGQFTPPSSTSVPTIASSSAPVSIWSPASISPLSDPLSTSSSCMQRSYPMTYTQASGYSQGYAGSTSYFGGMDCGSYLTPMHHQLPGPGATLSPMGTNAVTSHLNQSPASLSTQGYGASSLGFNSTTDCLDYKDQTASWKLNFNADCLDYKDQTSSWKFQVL
UniProt P10287: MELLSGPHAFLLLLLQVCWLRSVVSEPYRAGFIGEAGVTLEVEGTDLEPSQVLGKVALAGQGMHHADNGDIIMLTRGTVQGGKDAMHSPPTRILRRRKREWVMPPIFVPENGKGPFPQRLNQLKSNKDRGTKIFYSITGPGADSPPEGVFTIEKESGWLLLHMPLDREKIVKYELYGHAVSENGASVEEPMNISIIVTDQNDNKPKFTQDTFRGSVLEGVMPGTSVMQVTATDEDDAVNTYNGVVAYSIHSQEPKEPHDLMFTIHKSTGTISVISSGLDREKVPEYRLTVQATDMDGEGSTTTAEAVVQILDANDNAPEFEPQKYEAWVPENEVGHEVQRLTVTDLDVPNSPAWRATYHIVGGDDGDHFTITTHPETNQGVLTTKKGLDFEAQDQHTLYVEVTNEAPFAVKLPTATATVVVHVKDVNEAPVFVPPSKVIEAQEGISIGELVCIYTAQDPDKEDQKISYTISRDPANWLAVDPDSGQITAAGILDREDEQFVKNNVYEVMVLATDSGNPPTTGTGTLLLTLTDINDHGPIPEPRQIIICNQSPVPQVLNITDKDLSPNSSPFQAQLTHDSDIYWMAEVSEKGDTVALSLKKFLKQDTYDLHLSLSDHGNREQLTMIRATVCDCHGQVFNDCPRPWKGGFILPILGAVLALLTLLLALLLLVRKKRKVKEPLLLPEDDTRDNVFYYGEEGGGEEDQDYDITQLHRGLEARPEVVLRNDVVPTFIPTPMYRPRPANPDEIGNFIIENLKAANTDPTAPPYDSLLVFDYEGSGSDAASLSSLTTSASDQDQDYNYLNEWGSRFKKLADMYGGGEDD
UniProt Q91VN6: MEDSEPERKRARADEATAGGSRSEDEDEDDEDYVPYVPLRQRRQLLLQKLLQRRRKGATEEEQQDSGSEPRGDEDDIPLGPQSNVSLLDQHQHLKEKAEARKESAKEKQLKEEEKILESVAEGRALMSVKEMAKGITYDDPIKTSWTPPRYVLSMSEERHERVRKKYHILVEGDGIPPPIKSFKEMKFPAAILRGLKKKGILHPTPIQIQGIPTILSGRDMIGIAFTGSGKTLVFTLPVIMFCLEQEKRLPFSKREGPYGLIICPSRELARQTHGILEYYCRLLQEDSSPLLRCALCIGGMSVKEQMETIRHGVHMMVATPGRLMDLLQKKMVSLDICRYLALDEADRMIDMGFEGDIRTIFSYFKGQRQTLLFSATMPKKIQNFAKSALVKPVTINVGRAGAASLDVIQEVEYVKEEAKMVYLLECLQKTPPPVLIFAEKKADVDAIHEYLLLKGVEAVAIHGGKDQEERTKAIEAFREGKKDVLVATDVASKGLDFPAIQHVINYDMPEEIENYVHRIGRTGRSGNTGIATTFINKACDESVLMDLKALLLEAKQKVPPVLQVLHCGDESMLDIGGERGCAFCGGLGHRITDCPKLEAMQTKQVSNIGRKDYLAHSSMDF
UniProt Q6ZPF4: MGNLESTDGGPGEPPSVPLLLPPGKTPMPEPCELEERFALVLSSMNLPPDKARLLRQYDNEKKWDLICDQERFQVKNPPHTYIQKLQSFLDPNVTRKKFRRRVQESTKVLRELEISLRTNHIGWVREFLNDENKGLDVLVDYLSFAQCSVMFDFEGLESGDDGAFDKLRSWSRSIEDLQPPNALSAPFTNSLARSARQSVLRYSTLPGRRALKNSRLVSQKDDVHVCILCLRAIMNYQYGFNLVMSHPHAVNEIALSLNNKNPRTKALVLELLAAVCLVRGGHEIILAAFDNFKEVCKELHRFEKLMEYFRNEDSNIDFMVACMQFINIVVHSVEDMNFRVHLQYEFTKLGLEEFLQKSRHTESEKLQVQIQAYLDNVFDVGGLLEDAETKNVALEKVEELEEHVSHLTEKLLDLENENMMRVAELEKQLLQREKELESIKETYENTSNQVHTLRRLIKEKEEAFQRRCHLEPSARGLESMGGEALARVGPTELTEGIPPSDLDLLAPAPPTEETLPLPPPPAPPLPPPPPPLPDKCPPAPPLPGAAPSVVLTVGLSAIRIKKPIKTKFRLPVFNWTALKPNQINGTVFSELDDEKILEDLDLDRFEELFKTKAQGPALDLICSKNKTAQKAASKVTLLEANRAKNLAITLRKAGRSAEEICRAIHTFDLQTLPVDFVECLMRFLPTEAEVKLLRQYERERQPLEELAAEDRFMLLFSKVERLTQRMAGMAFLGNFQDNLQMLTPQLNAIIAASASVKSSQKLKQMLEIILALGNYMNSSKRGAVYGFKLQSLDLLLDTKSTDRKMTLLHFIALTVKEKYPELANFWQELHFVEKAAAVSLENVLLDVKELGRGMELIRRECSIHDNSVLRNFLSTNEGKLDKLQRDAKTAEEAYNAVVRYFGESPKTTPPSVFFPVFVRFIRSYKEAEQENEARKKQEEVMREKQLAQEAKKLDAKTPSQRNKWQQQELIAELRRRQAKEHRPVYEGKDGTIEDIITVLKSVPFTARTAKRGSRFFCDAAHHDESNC
UniProt Q9CXY6: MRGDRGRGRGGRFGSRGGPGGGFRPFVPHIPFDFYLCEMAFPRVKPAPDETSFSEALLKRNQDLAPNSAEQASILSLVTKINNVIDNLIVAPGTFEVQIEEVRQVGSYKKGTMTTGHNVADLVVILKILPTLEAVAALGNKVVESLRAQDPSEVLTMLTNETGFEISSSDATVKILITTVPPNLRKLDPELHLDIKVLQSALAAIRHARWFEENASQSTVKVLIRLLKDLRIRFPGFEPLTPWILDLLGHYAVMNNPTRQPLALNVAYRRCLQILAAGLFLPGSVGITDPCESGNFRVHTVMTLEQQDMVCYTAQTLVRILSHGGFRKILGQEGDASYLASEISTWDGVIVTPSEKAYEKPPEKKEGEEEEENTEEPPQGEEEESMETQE
UniProt P27546: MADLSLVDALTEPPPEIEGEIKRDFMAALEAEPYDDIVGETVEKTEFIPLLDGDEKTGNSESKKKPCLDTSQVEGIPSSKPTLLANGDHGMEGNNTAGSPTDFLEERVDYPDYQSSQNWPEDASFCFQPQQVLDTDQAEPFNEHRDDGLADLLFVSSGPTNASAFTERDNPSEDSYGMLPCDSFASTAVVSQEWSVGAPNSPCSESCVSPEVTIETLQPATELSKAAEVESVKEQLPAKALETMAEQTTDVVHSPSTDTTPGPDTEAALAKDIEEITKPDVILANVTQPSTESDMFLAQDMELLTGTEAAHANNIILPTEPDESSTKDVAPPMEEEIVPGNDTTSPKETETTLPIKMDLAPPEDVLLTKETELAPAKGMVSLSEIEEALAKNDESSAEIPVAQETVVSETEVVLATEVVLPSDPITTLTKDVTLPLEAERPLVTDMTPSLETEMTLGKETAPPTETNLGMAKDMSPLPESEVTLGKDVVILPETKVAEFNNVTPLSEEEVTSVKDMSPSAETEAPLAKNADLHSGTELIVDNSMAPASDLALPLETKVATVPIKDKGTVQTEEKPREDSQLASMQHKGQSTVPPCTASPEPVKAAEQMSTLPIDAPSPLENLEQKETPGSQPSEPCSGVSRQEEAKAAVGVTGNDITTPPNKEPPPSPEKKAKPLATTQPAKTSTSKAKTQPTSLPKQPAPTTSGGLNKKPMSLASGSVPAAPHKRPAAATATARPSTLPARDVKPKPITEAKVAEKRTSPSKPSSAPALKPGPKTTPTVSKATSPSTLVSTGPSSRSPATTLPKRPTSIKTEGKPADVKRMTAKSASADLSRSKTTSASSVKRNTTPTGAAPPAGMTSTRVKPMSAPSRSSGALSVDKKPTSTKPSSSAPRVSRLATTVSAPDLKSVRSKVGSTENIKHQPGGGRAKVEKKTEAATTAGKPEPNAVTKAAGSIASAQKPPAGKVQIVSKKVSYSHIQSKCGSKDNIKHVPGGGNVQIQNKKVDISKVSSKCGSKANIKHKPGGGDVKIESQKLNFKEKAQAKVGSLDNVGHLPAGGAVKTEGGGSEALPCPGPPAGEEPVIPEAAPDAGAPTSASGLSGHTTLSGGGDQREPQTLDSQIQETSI
UniProt Q920Q6: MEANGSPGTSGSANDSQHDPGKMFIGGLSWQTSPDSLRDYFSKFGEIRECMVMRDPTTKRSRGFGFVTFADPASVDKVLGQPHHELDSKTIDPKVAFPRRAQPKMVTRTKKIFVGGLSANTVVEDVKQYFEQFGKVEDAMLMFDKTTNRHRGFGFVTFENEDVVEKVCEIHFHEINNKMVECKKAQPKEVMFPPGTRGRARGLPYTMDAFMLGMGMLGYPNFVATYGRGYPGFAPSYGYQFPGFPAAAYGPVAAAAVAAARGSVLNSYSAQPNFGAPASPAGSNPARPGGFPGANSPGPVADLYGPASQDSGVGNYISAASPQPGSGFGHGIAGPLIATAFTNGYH
UniProt Q9EPK8: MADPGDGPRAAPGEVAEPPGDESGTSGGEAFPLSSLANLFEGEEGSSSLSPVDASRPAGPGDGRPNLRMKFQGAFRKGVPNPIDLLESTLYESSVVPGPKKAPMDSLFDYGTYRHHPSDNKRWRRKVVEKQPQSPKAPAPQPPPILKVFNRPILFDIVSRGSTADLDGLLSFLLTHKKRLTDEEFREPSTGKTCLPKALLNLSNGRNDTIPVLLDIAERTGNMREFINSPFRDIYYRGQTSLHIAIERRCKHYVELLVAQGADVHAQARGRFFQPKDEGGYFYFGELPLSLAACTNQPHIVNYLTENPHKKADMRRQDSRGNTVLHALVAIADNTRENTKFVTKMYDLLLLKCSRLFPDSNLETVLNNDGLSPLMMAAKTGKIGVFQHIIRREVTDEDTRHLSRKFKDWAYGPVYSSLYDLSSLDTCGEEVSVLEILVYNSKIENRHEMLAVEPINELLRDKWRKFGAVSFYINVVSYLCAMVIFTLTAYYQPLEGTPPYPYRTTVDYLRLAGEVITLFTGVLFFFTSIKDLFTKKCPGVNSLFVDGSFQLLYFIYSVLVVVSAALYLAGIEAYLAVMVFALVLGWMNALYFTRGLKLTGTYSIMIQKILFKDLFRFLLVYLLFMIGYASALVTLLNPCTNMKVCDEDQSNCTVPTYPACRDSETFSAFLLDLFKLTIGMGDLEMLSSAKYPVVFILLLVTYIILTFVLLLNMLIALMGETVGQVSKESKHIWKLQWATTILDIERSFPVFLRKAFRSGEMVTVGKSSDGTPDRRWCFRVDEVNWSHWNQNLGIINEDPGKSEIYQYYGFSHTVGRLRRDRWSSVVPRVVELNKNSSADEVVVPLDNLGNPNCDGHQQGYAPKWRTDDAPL
UniProt O88532: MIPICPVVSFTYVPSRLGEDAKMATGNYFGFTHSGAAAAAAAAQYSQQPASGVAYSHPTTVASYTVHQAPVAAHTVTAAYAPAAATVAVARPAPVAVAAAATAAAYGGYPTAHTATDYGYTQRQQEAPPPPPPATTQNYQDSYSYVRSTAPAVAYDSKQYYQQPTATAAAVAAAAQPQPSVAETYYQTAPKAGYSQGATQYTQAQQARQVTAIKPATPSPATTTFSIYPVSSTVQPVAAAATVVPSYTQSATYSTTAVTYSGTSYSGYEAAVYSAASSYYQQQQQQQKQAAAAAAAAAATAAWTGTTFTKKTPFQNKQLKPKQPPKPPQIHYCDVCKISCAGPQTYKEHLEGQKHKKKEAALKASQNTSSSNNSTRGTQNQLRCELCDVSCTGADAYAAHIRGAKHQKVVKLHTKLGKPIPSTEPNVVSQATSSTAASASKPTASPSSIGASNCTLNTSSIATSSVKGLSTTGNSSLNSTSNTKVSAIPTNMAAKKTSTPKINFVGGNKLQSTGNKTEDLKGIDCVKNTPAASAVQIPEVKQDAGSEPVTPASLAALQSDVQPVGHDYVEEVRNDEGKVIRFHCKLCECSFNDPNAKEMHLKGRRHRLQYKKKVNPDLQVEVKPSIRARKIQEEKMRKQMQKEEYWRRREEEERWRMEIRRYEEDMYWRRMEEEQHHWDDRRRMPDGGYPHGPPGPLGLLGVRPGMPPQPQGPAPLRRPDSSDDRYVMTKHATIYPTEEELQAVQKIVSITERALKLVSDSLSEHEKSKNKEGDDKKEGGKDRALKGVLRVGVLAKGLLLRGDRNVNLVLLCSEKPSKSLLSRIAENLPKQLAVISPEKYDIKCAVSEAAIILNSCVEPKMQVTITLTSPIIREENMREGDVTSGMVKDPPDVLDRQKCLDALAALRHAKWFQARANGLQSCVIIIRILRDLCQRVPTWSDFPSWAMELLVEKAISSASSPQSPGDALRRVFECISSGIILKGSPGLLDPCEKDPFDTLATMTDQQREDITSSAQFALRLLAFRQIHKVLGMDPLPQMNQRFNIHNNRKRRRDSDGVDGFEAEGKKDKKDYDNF

B1: GTPBP1 (protein, UniProt O08582 1-668)
chain: MAAERSRSPVDSPVPASMFAPEPSSPGAARAAAAAARLHGGFDSDCSEDGEALNGEPELDLTSKLVLVSPTSEQYDSLLRQMWERMDEGCGETIYVIGQGSDGTEYGLSEADMEASYATVKSMAEQIEADVILLRERQEAGGRVRDYLVRKRVGDNDFLEVRVAVVGNVDAGKSTLLGVLTHGELDNGRGFARQKLFRHKHEIESGRTSSVGNDILGFDSEGNVVNKPDSHGGSLEWTKICEKSSKVITFIDLAGHEKYLKTTVFGMTGHLPDFCMLMVGSNAGIVGMTKEHLGLALALNVPVFVVVTKIDMCPANILQETLKLLQRLLKSPGCRKIPVLVQSKDDVIVTASNFSSERMCPIFQISNVTGENLDLLKMFLNLLSPRTSYREEEPAEFQIDDTYSVPGVGTVVSGTTLRGLIKLNDTLLLGPDPLGNFLSIAVKSIHRKRMPVKEVRGGQTASFALKKIKRSSIRKGMVMVSPRLNPQASWEFEAEILVLHHPTTISPRYQAMVHCGSIRQTATILSMDKDCLRTGDKATVHFRFIKTPEYLHIDQRLVFREGRTKAVGTITKLLQTTNNSPMNSKPQQIKMQSTKKGPLSKREEGGPCGVPAAGGPPTGDEASSLGTAQAASTSGLQPQPKPSSGGRRRGGQRHKVKSGACVTPASGC
B2: GIT2 (protein, UniProt Q9JLQ2 1-708)
chain: MSKRLRSSDVCADCNGPDPSWASVNRGTFICDECCSVHRSLGRHISQVRHLKHTAWPPTLLQMVETLYNNGANSIWEHSLLDPASIMSGRRKANPQDKVHPNKAEFIRAKYQMLAFVHRLPCREDDSVTAKDLSKQLHSSVRTGNLETCLRLLSLGAQANFFHPEKGSTPLHVASKAGQILQAELLAVYGADPGTQDSSGKTPVDYARQGGHHELAERLIEIQYELTDRLAFYLCGRKPDHKSGQHFLIPQRADSLDLSELAKAAKKKLQSLSNHLFEELAMDVYDEVDRRETDAVWLATQNHSTLVTETTVVPFLPVNPEYSSTRNQGRQKLARFNAHEFATLVIDILSDAKRRQQGSPLSRSKDNVELILRTVSTQHSTESQDNDQPDYDSVASDEDTDVETRASKANRQKLQTLQSENSSLRRQATASACQVQTGSDHKDTASHSSLKRRPSARGSRPMSMYETGSGQKPYLPMGEASHPEESRTRLQPFPTHIGRSALVTSSSSLPSFPSTLSWSRDESARRASRLEKQNSTPESDYDNTACDPEPDDTGSTRKGRQRSMLWQGDGLLPDTAEPHSVPSPTLPSTEDVIRKTEQITKNIQELLRAAQENKHDSYIPCSERIHVAVTEMAALFPKKPKSDTVRTSLRLLTSSAYRLQSECRKALPGDSSLPTDVQLVTQQVIQCAYDIAKAAKQLVTITTKENSS
B3: GIT1 (protein, UniProt Q68FF6 1-770)
chain: MSRKGPRAEVCADCSAPDPGWASISRGVLVCDECCSVHRSLGRHISIVKHLRHSAWPPTLLQMVHTLASNGANSIWEHSLLDPAQVQSGRRKANPQDKVHPIKSEFIRAKYQMLAFVHKLPCRDDDGVTAKDLSKQLHSSVRTGNLETCLRLLSLGAQANFFHPEKGTTPLHVAAKAGQTLQAELLVVYGADPGSPDVNGRTPIDYARQAGHHELAERLVECQYELTDRLAFYLCGRKPDHKNGHYIIPQMADRSRQKCMSQSLDLSELAKAAKKKLQALSNRLFEELAMDVYDEVDRRENDAVWLATQNHSTLVTERSAVPFLPVNPEYSATRNQGRQKLARFNAREFATLIIDILSEAKRRQQGKSLSSPTDNLELSARSQSELDDQHDYDSVASDEDTDQEPLPSAGATRNNRARSMDSSDLSDGAVTLQEYLELKKALATSEAKVQQLMKVNSSLSDELRRLQREIHKLQAENLQLRQPPGPVPPPSLPSERAEHTLMGPGGSTHRRDRQAFSMYEPGSALKPFGGTPGDELATRLQPFHSTELEDDAIYSVHVPAGLYRIRKGVSASSVPFTPSSPLLSCSQEGSRHASKLSRHGSGADSDYENTQSGDPLLGLEGKRFLELSKEDELHPELESLDGDLDPGLPSTEDVILKTEQVTKNIQELLRAAQEFKHDSFVPCSEKIHLAVTEMASLFPKRPALEPVRSSLRLLNASAYRLQSECRKTVPPEPGAPVDFQLLTQQVIQCAYDIAKAAKQLVTITTREKKQ
B4: GPAM (protein, UniProt Q61586 1-827)
chain: MEESSVTVGTIDVSYLPSSSEYSLGRCKHTSEDWVDCGFKPTFFRSATLKWKESLMSRKRPFVGRCCYSCTPQSWERFFNPSIPSLGLRNVIYINETHTRHRGWLARRLSYILFVQERDVHKGMFATSVTENVLSSSRVQEAIAEVAAELNPDGSAQQQSKAIQKVKRKARKILQEMVATVSPGMIRLTGWVLLKLFNSFFWNIQIHKGQLEMVKAATETNLPLLFLPVHRSHIDYLLLTFILFCHNIKAPYIASGNNLNIPVFSTLIHKLGGFFIRRRLDETPDGRKDILYRALLHGHVVELLRQQQFLEIFLEGTRSRSGKTSCARAGLLSVVVDTLSSNTIPDILVIPVGISYDRIIEGHYNGEQLGKPKKNESLWSVARGVIRMLRKNYGYVRVDFAQPFSLKEYLEGQSQKPVSAPLSLEQALLPAILPSRPNDVADEHQDLSSNESRNPADEAFRRRLIANLAEHILFTASKSCAIMSTHIVACLLLYRHRQGIHLSTLVEDFFVMKEEVLARDFDLGFSGNSEDVVMHAIQLLGNCVTITHTSRKDEFFITPSTTVPSVFELNFYSNGVLHVFIMEAIIACSIYAVLNKRCSGGSAGGLGNLISQEQLVRKAASLCYLLSNEGTISLPCQTFYQVCHETVGKFIQYGILTVAEQDDQEDVSPGLAEQQWDKKLPELNWRSDEEDEDSDFGEEQRDCYLKVSQSKEHQQFITFLQRLLGPLLEAYSSAAIFVHNFSGPVPESEYLQKLHRYLITRTERNVAVYAESATYCLVKNAVKMFKDIGVFKETKQKRVSVLELSSTFLPQCNRQKLLEYILSFVVL
B5: CTNNA2 (protein, UniProt Q61301 1-953)
chain: MTSATSPIILKWDPKSLEIRTLTVERLLEPLVTQVTTLVNTSNKGPSGKKKGRSKKAHVLAASVEQATQNFLEKGEQIAKESQDLKEELVAAVEDVRKQGETMRIASSEFADDPCSSVKRGTMVRAARALLSAVTRLLILADMADVMRLLSHLKIVEEALEAVKNATNEQDLANRFKEFGKEMVKLNYVAARRQQELKDPHCRDEMAAARGALKKNATMLYTASQAFLRHPDVAATRANRDYVFKQVQEAIAGISSAAQATSPTDEAKGHTGIGELAAALNEFDNKIILDPMTFSEARFRPSLEERLESIISGAALMADSSCTRDDRRERIVAECNAVRQALQDLLSEYMNNTGRKEKGDPLNIAIDKMTKKTRDLRRQLRKAVMDHISDSFLETNVPLLVLIEAAKSGNEKEVKEYAQVFREHANKLVEVANLACSISNNEEGVKLVRMAATQIDSLCPQVINAALTLAARPQSKVAQDNMDVFKDQWEKQVRVLTEAVDDITSVDDFLSVSENHILEDVNKCVIALQEGDVDTLDRTAGAIRGRAARVIHIINAEMENYEAGVYTEKVLEATKLLSETVMPRFAEQVEVAIEALSANVPQPFEENEFIDASRLVYDGVRDIRKAVLMIRTPEELEDDSDFEQEDYDVRSRTSVQTEDDQLIAGQSARAIMAQLPQEEKAKIAEQVEIFHQEKSKLDAEVAKWDDSGNDIIVLAKQMCMIMMEMTDFTRGKGPLKNTSDVINAAKKIAEAGSRMDKLARAVADQCPDSACKQDLLAYLQRIALYCHQLNICSKVKAEVQNLGGELIVSGTGVQSTFTTFYEVDCDVIDGGRASQLSTHLPTCAEGAPIGSGSSDSSMLDSATSLIQAAKNLMNAVVLTVKASYVASTKYQKVYGTAAVNSPVVSWKMKAPEKKPLVKREKPEEFQTRVRRGSQKKHISPVQALSEFKAMDSF
B6: HNRPLL (protein, UniProt Q921F4 1-591)
chain: MSSSSSSSPKEETYEEDREFESQAKRLKTEEGEIVYSAEESENRQEATPQAGSDSDSGGGDGGDGDGGSGGGGDGEEGEGGEEGDEGDGDEGGSGGDEGGSGGGPRSMPLSTEGGGSHHKVSVSPVVHVRGLCESVVEADLVEALEKFGTICYVMMMPFKRQALVEFENIDSAKECVTFAADVPVYIAGQQAFFNYSTSKRITRPGNTDDPSGGNKVLLLSIQNPLYPITVDVLYTVCNPVGKVQRIVIFKRNGIQAMVEFESVLCAQKAKAALNGADIYAGCCTLKIEYARPTRLNVIRNDNDSWDYTKPYLGRRDRGKGRQRQAILGDHPSSFRHDGYGSHGPLLPLPSRYRMGSRDTPELVAYPLPQASSSYMHGGSPSGSVVMVSGLHQLKMNCSRVFNLFCLYGNIEKVKFMKTIPGTALVEMGDEYAVERAVTHLNNVKLFGKRLNVCVSKQHSVVPSQIFELEDGTSSYKDFAMSKNNRFTSAGQASKNIIQPPSCVLHYYNVPLCVTEETFTKLCNDHEVLPFIKYKVFDAKASAKTLSGLLEWKCKTDAVEALTALNHYQIRVPNGSNPYTLKLCFSTSSHL

Biological target: OTX2 homeoprotein (mouse (endogenous in adult mouse brain tissue)) (UniProt P80206)
Assay: affinity purification with mass spectrometry; anti-OTX2 (ab21990) coupled to magnetic beads, lysate of pooled LV and 4V choroid plexus from four 3-month-old mice; 100 mM Tris pH 7.5, 1 mM EDTA, 100 mM NaCl, 1% NP40, 1 mM MgCl2, benzonase; 4 °C overnight; IgG co-IP as control; nano-LC-MS/MS; N = 3

binding | Molecule
binds | ABCF1 (from UniProt Q6P542 1-837)
binds | APC (from UniProt Q61315 1-2845)
binds | CDH2 (from UniProt P15116)
binds | CDH3 (from UniProt P10287)
binds | CTNNA1 (from UniProt P26231 1-906)
binds | CTNNB1 (from UniProt Q02248 1-781)
binds | DDX41 (from UniProt Q91VN6 1-622)
binds | EPB41L5 (from UniProt Q8BGS1 1-731)
binds | ERBIN (from UniProt Q80TH2 1-1402)
binds | FMNL3 (from UniProt Q6ZPF4 1-1028)
binds | GJA1 (from UniProt P23242 1-382)
binds | ILF2 (from UniProt Q9CXY6 1-390)
binds | KIFAP3 (from UniProt P70188 1-793)
binds | LBR (from UniProt Q3U9G9 1-626)
binds | MAP1A (from UniProt Q9QYR6 1-2776)
binds | MAP4 (from UniProt P27546 1-1125)
binds | MCM3AP (from UniProt Q9WUU9 1-1971)
binds | MSI2 (from UniProt Q920Q6 1-346)
binds | MYCBP2 (from UniProt Q7TPH6 1-4749)
binds | PRRC2A (from UniProt Q7TSC1 1-2158)
binds | RPL29 (from UniProt P47915 1-160)
binds | SRRM2 (from UniProt Q8BTI8 1-2703)
binds | TRPV4 (from UniProt Q9EPK8 1-871)
binds | ZFR (from UniProt O88532 1-1074)
binds | B1
binds | B2
binds | B3
binds | B4
binds | B5
binds | B6

No constants are given. Whether binding was seen depends on the method and setting. In cells and extracts the contact can be indirect. Here binding means that the protein was enriched with, or labelled near, the bait; the list need not be complete.
